Results deposited as PubChem BioAssay AID1259425 (University of Nebraska Medical Center, 2018).

- Test: 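Seek colon cancer weak points whose silencing resembles KSR1 loss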 (primary screen)
- System: HCT116 human colon cancer cells
- Reagent: siRNA pool against human genes, 50 nM siRNA
- Measurement: 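mRNA of six signature genes measured together by branched-DNA assay after 50 nM siRNA pool, blank removed, divided by geometric mean of two housekeeping genes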
- Direction: BNIP3L mRNA: higher = more BNIP3L transcript after knockdown
Here is one part, drawn at random, of about 14,000 reagents tested. Further read-outs or replicates are left out here. Not given: the time to read-out.

no.	target gene	BNIP3L mRNA, set 1
1	RGR (retinal G protein coupled receptor)	0.367
2	CD99 (CD99 molecule (Xg blood group))	0.116
3	IPO7 (importin 7)	0.133
4	NIPBL (NIPBL cohesin loading factor)	0.179
5	MAPT (microtubule associated protein tau)	0.18
6	MANBAL (mannosidase beta like)	0.141
7	PCDH19 (protocadherin 19)	0.156
8	CAPRIN2 (caprin family member 2)	0.139
9	GLIS2 (GLIS family zinc finger 2)	0.143
10	AKR1C4 (aldo-keto reductase family 1 member C4)	0.128
11	TAFA5 (TAFA chemokine like family member 5)	0.101
12	DISP2 (dispatched RND transporter family member 2)	0.0926
13	MEGF11 (multiple EGF like domains 11)	0.0892
14	TRPM4	0.0628
15	CLEC5A (C-type lectin domain containing 5A)	0.0523
16	RBPMS (RNA binding protein, mRNA processing factor)	0.154
17	TBC1D12 (TBC1 domain family member 12)	0.515
18	VIM (vimentin)	0.0443
19	ADRB3 (adrenoceptor beta 3)	0.136
20	PARP14 (poly(ADP-ribose) polymerase family member 14)	0.114

Part of the list above, set out differently:
target gene,"BNIP3L mRNA, set 1"
DISP2 (dispatched RND transporter family member 2),0.0926
MEGF11 (multiple EGF like domains 11),0.0892
